# Experimental data taken from PubChem BioAssay AID2685 (National Center for Advancing Translational Sciences (NCATS), 2010).
# The whole screen tested about 320,000 compounds, of which about 2,100 (0.66%) were called active. The shares of active, inactive and inconclusive entries below differ from those in the screen. Calls come from the whole dose curve; as a rule, active = well fitted inhibition curve with a large enough effect in the signal ratio, with a control signal flat (not every such curve was filed as active); inconclusive = small, poorly fitted or top-dose-only effect, or effect the other way, or a change in a side signal; inactive = flat fitted curve, though single readings scatter; the % refers to the signal ratio. Potencies beside an inconclusive call are fits to weak or partial responses and may not hold up.
# Assay: qHTS Assay for Lipid Storage Modulators in Drosophila S3 Cells
# Conditions: BODIPY lipid droplet fluorescence, 18-24 h, cells fed with added oleic acid; lipid storage change, negative = inhibition: at 46.1 µM (top of the series) unless noted
# Outline: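 Laser-scanning cytometry quantifies lipid droplet accumulation (500–530 nm total intensity; droplet/cell object ratio) in oleic acid-fed (400 uM added) Drosophila S3 cells treated with a concentration series. 20 uM Triacsin C defined 100% inhibition.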
# % is set by controls: 0 for no effect and ±100 for the full control effect; potency is the fitted concentration of half-maximal effect.
SMILES,Potency,"lipid storage change, negative = inhibition",outcome
CC(=O)Nc1cccc(NC(=O)COc2ccc3c(c2)OCO3)c1,"inconclusive: 6.51 µM [activator, single point]",–,–
O=c1c2c(nc(NCCO)n1CC1CCCCC1)-c1ccccc1CC21CCCC1,–,inconclusive: 341%,–
CC1(C)C2CCC1(C)C(OC(=O)C[n+]1ccccc1N)C2 (stereo not given),"inconclusive: 2.59 µM [falling, full curve, poor fit]",–,–
CCOc1ccc(CN2CCN(c3cc(C)nc4c5c(C)cc(C)nc5nn34)CC2)cc1,"inconclusive: 1.46 µM [rising, partial curve]",–,–
COc1ccccc1CNC(=O)CCNS(=O)(=O)c1ccc2c(c1)CC(C)N2C(C)=O (stereo not given),–,inconclusive: 61.4%,–
Cn1cccc1C1C(C#N)=C(N)OC2=C1C(=O)CCC2 (stereo not given),–,inconclusive: 8.28%,–
CC(=O)N1CCCc2cc(S(=O)(=O)N3CCCC(C(=O)NCc4ccccc4Cl)C3)ccc21 (stereo not given),–,inconclusive: 24.4%,–
CCC1CCCCN1S(=O)(=O)c1ccc(NC(=O)c2nc(S(C)(=O)=O)ncc2Cl)cc1 (stereo not given),"inconclusive: 13 µM [falling, partial curve]",–,–
CCN(CC)CCCNC(=O)c1cc(-c2ccccc2)c(N2CCCCC2)s1,–,inconclusive: 23.4%,–
Cc1cc(C)c(OCCCCN(C)Cc2ccccc2)c(C)c1,active: 7.31 µM,–,–
CCCCN(C)Cc1c(C)[nH]c2ccc(C)cc2c1=O,–,inconclusive: 2.7%,–
CN(C1CCCCC1)S(=O)(=O)c1ccc(-c2ccccn2)s1,–,inconclusive: -43.8%,–
Cc1ccc(S(=O)(=O)c2nc(C)oc2N2CCOCC2)cc1,–,inconclusive: -24.6%,–
CC(=O)Nc1ccc(OCC(O)Cn2cncn2)cc1 (stereo not given),–,inconclusive: -22.6%,–
O=C(NC1CCCCC1)c1ccc(S(=O)(=O)c2ccccc2Cl)c([N+](=O)[O-])c1,"inconclusive: 29.1 µM [falling, single point]",–,–
CCC(CC)C(=O)N(CCc1ccc(OC)cc1)Cc1nc2ccccc2c(=O)[nH]1,"inconclusive: 16.4 µM [rising, partial curve]",–,–
CC(C(=O)N1CCOCC1)N1C(=O)C2C3CC(C(Br)C3Br)C2C1=O (stereo not given),–,inconclusive: 12.9%,–
CCOc1ccccc1-n1c(SCC(=O)NC)nnc1-c1ccco1,–,inconclusive: 25.3%,–
Clc1ccccc1-c1ccc2ncnc(NCc3cccnc3)c2c1,–,inconclusive: 30%,–
CCOc1cc(C=C(C(=O)OC)C(=O)OC)ccc1OCc1ccc([N+](=O)[O-])cc1,–,inconclusive: 4.39%,–
Cc1nccc2[nH]c(=O)c(C(=O)NCCCN(C)C3CCCCC3)cc12,–,inconclusive: -89.7%,–
COc1ccccc1CCC(=O)OC(C)C(=O)Nc1c(C)n(C)n(-c2ccccc2)c1=O (stereo not given),–,inactive: -5.33%,–
Cc1csc(NC(=O)CCC(=O)N(CC(=O)NC2CCCCC2)c2ccccc2)n1,"inconclusive: 16.4 µM [activator, single point]",–,–
O=C(OCc1ccc(Br)cc1)c1cccnc1,"inconclusive: 0.731 µM [falling, full curve, poor fit]",–,–
O=C(Cc1c(F)cccc1Cl)NCc1cccnc1,–,inconclusive: -15.3%,–
O=C(CN1C(=O)CCC1=O)Nc1nc(-c2cccs2)cs1,"inconclusive: 0.82 µM [falling, full curve]",–,–
CC(=O)Nc1ccc(S(=O)(=O)N(Cc2ccco2)Cc2cc3ccccc3[nH]c2=O)cc1,"inconclusive: 5.8 µM [falling, partial curve, poor fit]",–,–

# Some of these compounds in order of molar mass, rising:
SMILES,Potency,"lipid storage change, negative = inhibition",outcome
CCC(CC)C(=O)N(CCc1ccc(OC)cc1)Cc1nc2ccccc2c(=O)[nH]1,"inconclusive: 16.4 µM [rising, partial curve]",–,–
COc1ccccc1CCC(=O)OC(C)C(=O)Nc1c(C)n(C)n(-c2ccccc2)c1=O (stereo not given),–,inactive: -5.33%,–
CC(=O)Nc1ccc(S(=O)(=O)N(Cc2ccco2)Cc2cc3ccccc3[nH]c2=O)cc1,"inconclusive: 5.8 µM [falling, partial curve, poor fit]",–,–
CC(C(=O)N1CCOCC1)N1C(=O)C2C3CC(C(Br)C3Br)C2C1=O (stereo not given),–,inconclusive: 12.9%,–
CCC1CCCCN1S(=O)(=O)c1ccc(NC(=O)c2nc(S(C)(=O)=O)ncc2Cl)cc1 (stereo not given),"inconclusive: 13 µM [falling, partial curve]",–,–

# Continued.

SMILES,Potency,"lipid storage change, negative = inhibition",outcome
Cc1ccc(NC(=O)NCC2CCN(Cc3cc(C)ccc3Cl)CC2)c(C)c1,–,inconclusive: 14.8%,–
C=CCNC(=S)Nc1ccc(C)c(S(=O)(=O)N2CCCCC2)c1,–,inconclusive: 7.84%,–
C=CCOc1c(Cl)cc(/C=N/O)cc1OC,–,inconclusive: 42.4%,–
CCCNc1c(NS(=O)(=O)c2ccc(Br)cc2)c(=O)oc2ccccc12,–,–,inactive [at 46.1 µM]
Cc1ccc2ccc3ccc(C)nc3c2n1,"inconclusive: 6.51 µM [falling, partial curve]",–,–
COc1ccccc1NC(=O)C(=O)N/N=C/c1ccc([N+](=O)[O-])s1,–,inconclusive: 26.3%,–
Cc1ccc(C(=O)COC(=O)c2cc(C)no2)c(C)c1,–,inconclusive,–
O=C(N1CCOCC1)N1CCN(C(=O)N(c2ccccc2)c2ccccc2)CC1,–,inconclusive: -11.8%,–
O=C(Cc1cccs1)Nc1ccc(-c2nnn(CC(=O)N3CCOCC3)n2)cc1,–,inconclusive: 18.6%,–
CN1CCc2c(sc(N)c2C(=O)O)C1,–,inconclusive: -0.303%,–
COC(=O)CSC1=C(C#N)C(c2cccc(OC)c2)CC(=O)N1 (stereo not given),"inconclusive: 29.1 µM [falling, single point]",–,–
CC1CCN(C(=O)c2cc(-c3ccco3)on2)CC1,–,inconclusive: 107%,–
Cc1ccc(CN2CCC(Oc3ccc(C(=O)NCc4ccccn4)cc3)CC2)o1,"inconclusive: 10.3 µM [falling, single point]",–,–
O=C(COc1ccc(F)cc1)NCCCn1ccnc1,active: 25.9 µM,–,–
CC(C)(C)OC(=O)N/N=C\C=C\c1ccc2c(c1)OCO2,–,inconclusive: 27.1%,–
O=C(Cn1nnc(-c2ccccc2)n1)NCc1cccs1,–,inconclusive: 9.57%,–
COc1ccc(CCN(C)C(=O)C2CCCN(Cc3ccc(OC)c(OC)c3)C2)cc1OC (stereo not given),–,inconclusive: 15.7% [at 9.22 µM],–
O=C(COC(=O)c1ccc([N+](=O)[O-])cc1)Nc1ccc(Cl)cn1,–,inconclusive,–
CCOc1ccc(NC(=O)N2CCC(n3c(=O)[nH]c4ccccc43)CC2)cc1,"inconclusive: 0.82 µM [activator, single point]",–,–
COc1ccc(S(=O)(=O)CCC(=O)N(C)c2ccc(OC)cc2OC)cc1,–,inconclusive: -16.6%,–
N#C/C(=N\Nc1cccc(F)c1)C(=N)N1CCCCCC1,–,inconclusive: -10.7%,–
CCN1CCN(C(=O)CCc2nnc3ccc(N4CCC5(CC4)OCCO5)nn23)CC1,–,inconclusive: -1.19%,–
CC(C)(C)n1nc2c(c1NC(=O)c1cccs1)CS(=O)C2 (stereo not given),"inconclusive: 0.164 µM [rising, full curve, poor fit]",–,–
CCn1c(-c2cc(-c3cc(C)ccc3C)nc3ccccc23)n[nH]c1=S,–,inconclusive: 21.7%,–
Cc1ccnc(NC(=S)NC(=O)c2cncc(Br)c2)c1,–,inconclusive: 30.3%,–
NC(=O)c1nn(-c2ccc(Oc3ccccc3)cc2)c(=O)cc1O,–,inconclusive: -52.9%,–
CCOC(=O)c1cnn(-c2nc3c(C)cccc3s2)c1C,"inconclusive: 2.91 µM [falling, single point]",–,–

SMILES,Potency,"lipid storage change, negative = inhibition",outcome
CN(C)S(=O)(=O)c1ccc(C(=O)Nc2cccc(C(=O)O)c2)cc1,–,inconclusive: -165%,–
Cc1ccsc1C=Nc1ccc(O)cc1,–,inactive: -2.45%,–
COc1cccc(/C(=N/O)C2CC2c2ccc(Cl)cc2)c1 (stereo not given),–,inconclusive: 4.3%,–
CCN(CC(=O)Nc1cc(Cl)ccc1C)C(=O)c1ccc2c(c1)NC(=O)C(C)S2 (stereo not given),–,inconclusive: -48%,–
CCc1ccc(C(=O)NNc2ccc(F)cc2F)cc1,–,inconclusive: 26.5%,–
O=S(=O)(NC1CCCCC1N1CCN(c2ccc(F)cc2)CC1)c1ccccc1 (stereo not given),"inconclusive: 29.1 µM [activator, single point]",–,–
COC(=O)CNC(=O)CSc1nc(N)cc(=O)[nH]1,–,inactive: -9.71%,–
Cc1ccc(CNC(=O)Nc2ccc(Cl)cc2)cc1,–,inconclusive: -36.3%,–
COC(=O)C(C)Sc1nc2c(cnn2-c2ccccc2)c(=O)[nH]1 (stereo not given),–,inconclusive: 17.2% [at 9.22 µM],–
COc1ccc(-n2c(-c3ccc(Cl)cc3)c[n+]3c2CCCCC3)cc1,"inconclusive: 29.1 µM [cytotoxic, single point]",–,–
COc1ccc(C)cc1NC(=O)C1CCCN(S(=O)(=O)c2cccs2)C1 (stereo not given),–,inconclusive: 124%,–
O=C(COC(=O)C1CC2C=CC1C2)NCc1ccco1 (stereo not given),–,inconclusive: 0.573%,–
COC(=O)CN(C)C(=O)c1ccccc1OC1CCN(S(C)(=O)=O)CC1,–,inconclusive: 1.39%,–
CN(C)S(=O)(=O)c1ccc(Cl)c(NC(=O)CSc2nc3c(cc2C#N)C(=O)CCC3)c1,–,inconclusive: 9.45%,–
COC(=O)c1ccc(CNC(=O)c2ccc(S(=O)(=O)N3CCCC(C)C3)cc2)cc1 (stereo not given),–,inconclusive: 14%,–
CO/N=C/c1c(-c2ccc(Cl)cc2)nc2cc(C)ccn12,–,inconclusive: 2.74%,–
COc1ccccc1Nc1nc(N)nc(CN2CCC(Cc3ccccc3)CC2)n1,–,inconclusive: 53.2%,–
O=C(CSc1nnc(-c2ccc(S(=O)(=O)N3CCCC3)cc2)o1)NCc1ccccc1,–,inconclusive: -54.8%,–
CC1CCN(S(=O)(=O)c2ccc(NC(=O)c3cccs3)cc2)CC1,–,inconclusive: 5.84%,–
Cn1c(CCN2CCCCC2)nc2cc(NC(=O)C3CCCCC3)ccc21,"inconclusive: 0.82 µM [falling, full curve, poor fit]",–,–
Cc1ccc(OCC(=O)NCCCNC(=O)c2cccnc2)cc1C,–,inconclusive: -49%,–
C=COCCNC(=S)N1CCOCCOCCN(C(=S)NCCOC=C)CCOCCOCC1,–,inconclusive: -8.44%,–
CCN(CC)c1ccc(/C=N/NC(=O)c2cc(C)nc3ccccc23)cc1,"inconclusive: 0.517 µM [falling, single point]",–,–
Clc1cccc(CSc2ccc(-c3cccnc3)nn2)c1,–,inconclusive: -4.17%,–
COc1ccc(S(=O)(=O)N2CCC(C(=O)N(C)Cc3ccc(C)o3)CC2)cc1OC,"inconclusive: 0.58 µM [activator, partial curve, poor fit]",–,–
c1ccc2c(c1)NC1(CCCCC1)n1c-2nc2ccccc21,"inconclusive: 2.91 µM [activator, single point]",–,–
